From ChEMBL document CHEMBL3988442, “University of Dundee, Small-Polar-MMV Screening Library” (2021).

Values are the deposited “Percent Effect”, in %.
How 0% and 100% were set is not recorded. Most values in the screen are low, and negative values occur.
The compounds are a random part of those screened.

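Whole-parasite assay of Trypanosoma brucei over 72 hours; the read-out is not stated. Concentration: 30 µM. Higher reads as stronger inhibition (inferred: compounds with an IC50 in retests scored well above the rest). Values scatter widely below zero; nearly all retest evidence comes from the higher of the two concentrations used. Of about 64,000 compounds tested this way, about 940 (1.5%) reached 50% or more in at least one test.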

Result for Cc1nn(C)c(N(C)C)c1CNC1CCCCNC1=O (stereo not drawn) was 9.581%.
Result for CN(C)C(=O)NCC(=O)N1CCCC2(CCC(=O)N(CC3CC3)C2)C1 (stereo not drawn) was -7.107%.
Result for CC(C)c1cc(C2CCCN2Cc2nc(-c3ccco3)no2)no1 (stereo not drawn) was -1.119%.
Result for CCCNc1ncc(CN2CCOC(Cc3cccc(F)c3)C2)cn1 (stereo not drawn) was -79.73%.
Result for CN1CC(c2ccccc2)C2(CCN(C(=O)c3ccc[nH]3)CC2)C1=O (stereo not drawn) was -9.985%.
Result for O=C(O)C(F)(F)F.O=C(O)C(F)(F)F.O=C(c1ccncc1)N1CCC2(CC1)CCN(Cc1ccccn1)C2=O was -9.957%.
Result for O=C(c1ccc(Cl)cc1-n1cnnn1)N1CCC2(CC1)OCCO2 was -30.99%.
Result for Cc1cccc2c1nc(COCC(=O)O)n2-c1ccc(N)nc1 was -54.98%.
Result for NC(=O)CN1CCN(c2ccnc3c(F)ccc(F)c23)CC1 was -1.673%.
Result for Cc1nc(C)c(CCNC(=O)NC2CC(=O)N(C(C)(C)C)C2)s1 (stereo not drawn) was -18.61%.
Result for Cc1cncc(CN2C[C@@H](O)[C@H](Oc3ccccc3)C2)c1 was 6.651%.
Result for Cc1cc(-n2cnnn2)n2ncnc2n1 was -7.129%.
Result for Cn1ccnc1CN1CCCC1CCc1ccccc1 (stereo not drawn) was -27.19%.
Result for Cc1ccc2cc(C(=O)N3CCN(C(=O)N(C)C)CC3)ccc2n1 was 10.25%.
Result for O=C(O)C(F)(F)F.[H][C@]12CCN(CC3CC3)C[C@]1([H])CN(c1ncc(C)cn1)C2 was -61%.
Result for CC(C)CN1CCCC2(CCN(C(=O)c3cnccn3)C2)C1 (stereo not drawn) was -16.89%.
Result for CCc1nc(N)sc1C(=O)N1CCCC(COc2cccc(C)c2)C1 (stereo not drawn) was -310.9%.
Result for O=c1[nH]nc(CNc2ncc(Cl)cn2)[nH]1 was -16.16%.
Result for CN1CCN(C(=O)NCCNc2ncccn2)Cc2ccccc21 was 6.171%.
Result for CC(C)Sc1ncccc1C(=O)NCc1ccc(CS(C)(=O)=O)cc1 was 3.017%.
Result for COCC1CN(C(=O)Cc2cccs2)Cc2nnn(CC3CC3)c21 (stereo not drawn) was -36.19%.
Result for Cc1cc(-c2cnc(N3CCSCC3)nc2-c2ccc(C)s2)on1 was -11.11%.
Result for Cc1csc(CNC(=O)NCC2(c3ccc4c(c3)OCO4)CC2)n1 was -7.836%.
Result for CN(Cc1ccccc1)CC1CC2(CO1)CN(c1nncs1)C2 (stereo not drawn) was -20.49%.
Result for CCN(c1ccc(C(=O)N2CCCC2)cc1)S(=O)(=O)CC was -1.326%.
Result for O=C1CC(NS(=O)(=O)c2ccc(F)c(Cl)c2)CN1 (stereo not drawn) was -6.238%.
Result for CCc1ccc(NS(=O)(=O)c2cc3c(c(C(=O)O)c2)OCCO3)cc1 was -6.085%.
Result for CC(C)OCCCNC(=O)c1cccnc1N1CCOCC1 was -77.36%.
Result for Cc1nc(C)n(C2CCCN(C(=O)c3cccc4[nH]ncc34)C2)n1 (stereo not drawn) was -5.641%.
Result for [H][C@@]12C[C@@H](C(=O)Nc3cnccn3)CN(c3ncc(F)cn3)[C@]1([H])CCO2 was -60.68%.
Result for CCOC1(C)C(=O)c2ccccc2N1Nc1ccccc1C(=O)CC (stereo not drawn) was -28.5%.
Result for CN(CC1CN(Cc2cn3ccsc3n2)CCO1)c1cccnn1 (stereo not drawn) was -4.701%.
Result for CO[C@@H]1CCC[C@@H](N(C)C(=O)c2cn3cc(C)ccc3n2)[C@H]1O was 9.113%.
Result for CCc1ccc(OCC(=O)N2CCN(CC)CC2)cc1 was -8.704%.
Result for O=C(NCc1nnc2n1CCC2)c1ccc(C2CCCO2)s1 (stereo not drawn) was 11.33%.
Result for CNC(=O)Nc1cc(-c2ccc(Br)cc2)nn1CCO was 45.29%.
Result for CCc1nnc2n1CCN(C(=O)c1cc3ccc(C)cc3[nH]1)C2 was -8.375%.
Result for COc1ccccc1NC(=O)NCc1cn[nH]c1 was -14.08%.

Once more, the final 3:

{"compound": "CNC(=O)Nc1cc(-c2ccc(Br)cc2)nn1CCO", "effect": 45.29}
{"compound": "CCc1nnc2n1CCN(C(=O)c1cc3ccc(C)cc3[nH]1)C2", "effect": -8.375}
{"compound": "COc1ccccc1NC(=O)NCc1cn[nH]c1", "effect": -14.08}